## Results from one PubChem assay

From PubChem BioAssay record AID1159506 (NCATS, 2015).

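Genome-wide siRNA knockdown in TC32 Ewing sarcoma cells, comparing luciferase light from an NR0B1-promoter reporter with a CMV-promoter reporter 48 hours after transfection. Each siRNA was applied at 20 nM. A z-score of the log NR0B1-over-CMV signal, less the median of siRNAs with the same seed; more negative means a stronger specific loss of the NR0B1 reporter.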

The strongest results of the screen are mostly left out here. Sequences are the guide (antisense) strand, without overhang.

- UCAUCUUUGCGGCAGUAGG against TEPP | seed-corrected z-score 0.0328
- AACUUGACACCCAAGGCAC against PLAC8 | seed-corrected z-score 0.9124
- UCUUCCACAAUCGUUAUGC against STXBP1 | seed-corrected z-score 0.2319
- UAUGGAAUAAGGCACGUUG against HHIP | seed-corrected z-score -0.5521
- AGAAUAAUCCUUAGGAUCG against TMEM132B | seed-corrected z-score 0.8092
- UCAAGGCCGGUAUCUAAGC against C1orf233 | seed-corrected z-score -1.153
- UCCGGUAUUUGUGCGCCUC against SLC25A1 | seed-corrected z-score 0.06154
- UUUGCAAUUAAUCCUACAG against SLC16A7 | seed-corrected z-score -0.5579
- UGUAUGGUGAGUUUGUUGG against KREMEN1 | seed-corrected z-score 0.05982
- UCCGUAAAGAGGUUGACCC against EIF3B | seed-corrected z-score 0.372
- AUGAUGUUGAGCGAGUUCU against KCNC1 | seed-corrected z-score -0.1053
- UUCACGUAAAAACUUGACC against PFN1 | seed-corrected z-score 0.4205
- AGAGGAAUUACAAAAAUAC against PNOC | seed-corrected z-score 0.7232
- UUAAGAGAUCUGCAAGUGU against COMMD6 | seed-corrected z-score 0.03708
- UCUAUAGAGAGAAUCGUUC against DSG1 | seed-corrected z-score 0.297
- UCAGAUACUUGUGGAGACC against PDLIM3 | seed-corrected z-score 0.1964
- UUAGAUGGGAUAAUCCUUC against CLNS1A | seed-corrected z-score 0.1224
- UCAGAGAUCCGGACAUUGC against GRK1 | seed-corrected z-score -0.2039
- AUUGAUGUAGACAUAGAGC against DAXX | seed-corrected z-score -1.006
- UAGCCGUCGAGAUAUGUGA against ANP32A | seed-corrected z-score -0.7537
- UCUCGUUCAAGGUCAGCUC against CHGB | seed-corrected z-score -1.671
- UUUGAAUAGCUGUUAACCC against TRAPPC11 | seed-corrected z-score 0.7747
- UUCUUCAAUCUUGAGCUCG against RRNAD1 | seed-corrected z-score -0.101
- UAAGUCUAUAUGUAACACC against C5orf34 | seed-corrected z-score -0.1847
- UGAGCUAUUCUCGUCCUCC against LRTM2 | seed-corrected z-score -0.476
- UGUUGUUGAAUCAUAGUCC against CBR4 | seed-corrected z-score -1.385
- UUUGUUCACCAUGAAAUGC against ZNF134 | seed-corrected z-score -0.8119
- UAGUCGACCAUGUGGGAGC against TEX37 | seed-corrected z-score 0.5444
- UUUGCAGCCGCAGUUUUCC against AP1S1 | seed-corrected z-score -0.3394
- UUUAUCAACAUCCUGGUAG against ZNF761 | seed-corrected z-score -0.05089
- UAAUCUACAAUUAUCCAGG against RBM46 | seed-corrected z-score 0.4876
- ACAUUUGUAGGUAUUCUCU against ZNF680 | seed-corrected z-score 0.008897
- AGCUCUUUAAGAAUCUCUC against RDH16 | seed-corrected z-score -0.02406
- AAGGUGUAAAUAUCUCUUC against CD47 | seed-corrected z-score -0.3346
- UCAGUUCGUUGUCUGGUCC against RNF135 | seed-corrected z-score 0.7357
- UCACGUUGUAGUUGGGUCG against DNAJC6 | seed-corrected z-score -0.9753
- AAAGUUACCACCUGAGGCC against DEFB1 | seed-corrected z-score 0.0004163
- AACCUCGACACUUUUGACC against DOPEY2 | seed-corrected z-score 0.4197
- UACUCGCUGAAAUACACCC against FBXO38 | seed-corrected z-score -0.3906
- UCGUACACCAGGUAGACGG against C19orf70 | seed-corrected z-score 0.07549
- UGCAGUACUAUGCUGAUGG against ZBTB1 | seed-corrected z-score 0.1489
- UGAUCAAGCAGUUCAACUC against ZFX | seed-corrected z-score -0.04804
- UCGUCUGCGUCGUUAAGGC against GDF7 | seed-corrected z-score -0.7489
- UUGACUGUGAAUUUAUUUC against FABP2 | seed-corrected z-score 0.5725
- UAGGGCUUUAAGAAUGUUC against RNF150 | seed-corrected z-score 0.5624
- UGAUGUGCUAAGAACAUCC against BLM | seed-corrected z-score 0.08203
- ACAGGAAUCUCGAUGAAUG against RFPL4AL1 | seed-corrected z-score 0.2603
- UCUGAUAUCAUCUAAAGUG against PPP3CA | seed-corrected z-score 0.1772
- UAUCAAUCAACUCAACAUC against CARD8 | seed-corrected z-score 0.1242

Repeated from the top, 3 entries:

UCAUCUUUGCGGCAGUAGG against TEPP read seed-corrected z-score 0.0328.
AACUUGACACCCAAGGCAC against PLAC8 read seed-corrected z-score 0.9124.
UCUUCCACAAUCGUUAUGC against STXBP1 read seed-corrected z-score 0.2319.